{"source": "paper PMC4543939", "key": {"[1]": {"biological_target": "T1, phospholamban (PLN, wild type) (UniProt P61014)", "T1 sequence": "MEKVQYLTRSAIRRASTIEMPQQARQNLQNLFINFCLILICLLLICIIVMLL", "assay": "fluorescence polarization; affinity capillary electrophoresis", "details": "ACE/FP: 20 mM MOPS pH 7.0, 0.1% C12E8, 0.25 mM DTT, 1 mM MgCl2, 1 mM KCl, 5 mM CaCl2, 2.5 nM FAM-ssDNA, label: 5' FAM, single-stranded DNA"}, "[2]": {"biological_target": "T1, phospholamban (PLN, wild type)", "assay": "solid-state NMR (RINEPT)", "details": "DMPC vesicles, 1:1 molar ratio; recombinant protein; single-stranded DNA"}, "[3]": {"tested_on": "PLN-AFA (pentamer-destabilizing mutant)", "assay": "solution NMR ([1H,15N] HSQC)", "details": "isotropic bicelles q=0.33, legend names PLN-AFA, text says PLN; recombinant protein; single-stranded DNA"}, "[4]": {"details": "low nM Kd, value only in figure, recombinant protein"}}, "note": "Construct, isoform or probe ends are uncertain for at least one entry. For some of these results: The comparison behind a weaker result is the experiment's own reference, which may not be listed here.", "data": [{"sequence": "AGCAGCACAGAGGTCAGATG [20mer ssDNA]", "values": [{"measurement": "binding result", "setting": "[1]; [4]", "result": "binds"}]}, {"sequence": "AGCAGCACAGAGGTCAGATGCAGGTAGGGTCCTATGCGTGCTACCGTGAA [50mer ssDNA]", "values": [{"measurement": "binding result", "setting": "[1]; low nM Kd, similar to the 50mer RNA, recombinant …", "result": "binds"}]}, {"sequence": "AGCAGCACAGAGGTCAGATGCAGGTAGGGTCCTATGCGTGCTACCGTGAAAGCAGCACAGAGGTCAGATGATAGCTTGCA [80mer ssDNA used for NMR]", "values": [{"measurement": "binding result", "setting": "[2]", "result": "binds"}]}, {"sequence": "AGTGATAGCTATGGT [15mer ssDNA used for solution NMR]", "values": [{"measurement": "binding result", "setting": "[3]", "result": "binds"}]}, {"sequence": "AGTGATAGCTATGGT [15mer ssDNA]", "values": [{"measurement": "binding result", "setting": "[1]; [4]", "result": "binds"}]}, {"sequence": "ATAGCTTGCA [10mer ssDNA]", "values": [{"measurement": "binding result", "setting": "[1]; recombinant protein", "result": "binds more weakly"}]}, {"sequence": "GCTTG [5mer ssDNA]", "values": [{"measurement": "binding result", "setting": "[1]; recombinant protein", "result": "binds more weakly"}]}]}
